Experimental data reported in article doi:10.1101/2022.05.26.493655.
Read-outs that look alike come from different tables or passages of the source. These are yes or no findings as the source states them, for the method shown. In cells and extracts the contact can be indirect. Some binding calls cover weakened binding; strength is not graded here. For some of these results: Where a sequence is shown, tags or fusion partners need not be part of it. One block for each molecule: values may come before it.

The chains behind the UniProt entries cited, without tags or fusion partners.
UniProt Q96B26: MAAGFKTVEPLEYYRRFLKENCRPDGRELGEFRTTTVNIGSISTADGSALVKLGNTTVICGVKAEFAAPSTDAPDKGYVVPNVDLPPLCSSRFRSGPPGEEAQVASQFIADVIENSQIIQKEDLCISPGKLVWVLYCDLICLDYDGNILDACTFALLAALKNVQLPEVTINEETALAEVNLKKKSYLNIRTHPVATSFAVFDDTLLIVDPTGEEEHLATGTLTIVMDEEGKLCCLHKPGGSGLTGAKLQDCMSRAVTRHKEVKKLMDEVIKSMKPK
UniProt Q13601: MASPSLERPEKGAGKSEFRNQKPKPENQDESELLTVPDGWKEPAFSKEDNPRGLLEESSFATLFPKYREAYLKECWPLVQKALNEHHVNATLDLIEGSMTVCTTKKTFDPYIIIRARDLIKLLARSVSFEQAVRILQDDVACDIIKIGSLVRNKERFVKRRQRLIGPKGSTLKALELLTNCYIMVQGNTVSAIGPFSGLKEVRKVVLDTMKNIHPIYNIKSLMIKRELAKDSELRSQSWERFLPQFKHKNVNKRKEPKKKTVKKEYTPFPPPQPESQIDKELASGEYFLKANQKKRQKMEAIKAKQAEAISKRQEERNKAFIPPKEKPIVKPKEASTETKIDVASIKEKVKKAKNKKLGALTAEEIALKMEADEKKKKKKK
UniProt Q15024: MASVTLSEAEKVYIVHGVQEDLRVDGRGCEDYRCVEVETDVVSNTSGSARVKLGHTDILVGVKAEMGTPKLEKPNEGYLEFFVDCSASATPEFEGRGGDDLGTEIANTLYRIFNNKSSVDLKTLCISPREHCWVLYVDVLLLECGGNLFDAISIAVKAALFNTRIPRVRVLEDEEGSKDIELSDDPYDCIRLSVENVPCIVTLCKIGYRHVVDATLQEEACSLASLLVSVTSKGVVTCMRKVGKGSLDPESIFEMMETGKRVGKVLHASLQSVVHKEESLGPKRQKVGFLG

Experiments:
[1] = target: EXOSC8 (human (endogenous in HCT116 and DLD1)) (UniProt Q96B26); assay: co-IP
[2] = target: T1, NOP2 (human (endogenous in HCT116 and DLD1)) (UniProt P46087); assay: co-IP
T1 sequence: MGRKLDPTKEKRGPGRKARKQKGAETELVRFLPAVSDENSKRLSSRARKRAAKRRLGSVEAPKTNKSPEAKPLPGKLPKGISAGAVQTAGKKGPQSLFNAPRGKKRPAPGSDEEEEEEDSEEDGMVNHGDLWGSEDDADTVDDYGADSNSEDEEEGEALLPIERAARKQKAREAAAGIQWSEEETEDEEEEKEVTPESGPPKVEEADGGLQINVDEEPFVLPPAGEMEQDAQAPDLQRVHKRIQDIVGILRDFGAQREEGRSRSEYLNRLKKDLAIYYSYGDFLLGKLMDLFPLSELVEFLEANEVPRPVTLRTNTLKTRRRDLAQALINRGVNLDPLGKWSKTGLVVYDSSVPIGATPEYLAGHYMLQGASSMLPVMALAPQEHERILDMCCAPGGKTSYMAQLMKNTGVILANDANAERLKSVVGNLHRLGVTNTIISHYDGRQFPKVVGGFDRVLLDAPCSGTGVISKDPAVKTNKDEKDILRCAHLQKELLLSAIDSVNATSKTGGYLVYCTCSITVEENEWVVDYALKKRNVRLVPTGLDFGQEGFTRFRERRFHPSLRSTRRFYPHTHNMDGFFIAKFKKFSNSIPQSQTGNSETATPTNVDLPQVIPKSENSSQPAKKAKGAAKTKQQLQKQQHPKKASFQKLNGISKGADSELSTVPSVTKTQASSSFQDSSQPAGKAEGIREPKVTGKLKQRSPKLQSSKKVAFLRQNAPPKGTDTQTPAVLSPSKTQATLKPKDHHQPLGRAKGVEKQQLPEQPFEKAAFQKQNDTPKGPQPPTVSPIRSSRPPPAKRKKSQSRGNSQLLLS

[3] = target: KRR1 (human (endogenous in HCT116 and DLD1)) (UniProt Q13601); assay: co-IP
[4] = target: T2, ZNF692 stably overexpressed in HCT116 cells (human) (UniProt Q9BU19); assay: co-IP
T2 sequence: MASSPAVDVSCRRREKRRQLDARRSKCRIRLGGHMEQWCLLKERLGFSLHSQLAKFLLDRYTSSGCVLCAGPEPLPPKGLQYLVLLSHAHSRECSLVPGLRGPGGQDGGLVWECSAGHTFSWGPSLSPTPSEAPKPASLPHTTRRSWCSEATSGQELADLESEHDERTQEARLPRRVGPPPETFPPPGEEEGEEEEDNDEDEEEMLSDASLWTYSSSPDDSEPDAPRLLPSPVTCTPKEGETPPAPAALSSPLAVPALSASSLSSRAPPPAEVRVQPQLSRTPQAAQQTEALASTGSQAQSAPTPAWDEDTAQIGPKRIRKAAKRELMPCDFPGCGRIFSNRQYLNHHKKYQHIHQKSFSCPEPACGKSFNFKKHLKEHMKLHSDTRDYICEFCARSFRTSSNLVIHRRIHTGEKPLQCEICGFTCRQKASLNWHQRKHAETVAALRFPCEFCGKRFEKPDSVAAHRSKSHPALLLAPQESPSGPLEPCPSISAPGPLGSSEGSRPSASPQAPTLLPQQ

[5] = target: T2, ZNF692 stably overexpressed in HCT116 cells (human); assay: co-IP; remark: listed apart in the source
[6] = target: T3, purified recombinant GFP-ZNF692 WT (human) (UniProt Q9BU19); assay: pull-down
T3 sequence: T2 sequence

binding [1]: binds
binding [2]: binds
binding [3]: binds
binding [4]: binds
Molecule: EXOSC7 (from UniProt Q15024 1-291)

binding [4]: binds
binding [5]: binds
binding [6]: binds
Molecule: KRR1 (from UniProt Q13601 1-381)

binding [3]: binds
binding [4]: binds
binding [6]: binds
B1: NOP2 (protein, UniProt P46087 1-812)
chain: T1 sequence
